From PMC6739334
For at least one entry, the source does not settle the construct or the ends of the probe. No signal at the amounts used counts as a negative.

How the values were obtained:
[1] = tested on: YBX1 (recombinant, Abcam ab187443); assay: EMSA; details: 20 ug protein; EMSA: LightShift Chemiluminescent RNA EMSA kit, room temperature 20-30 min, buffer not stated; pull-down with linearized circAnks1a: 50 mM Tris-HCl, 150 mM NaCl; commercial protein; label: 3' biotin
[2] = tested on: Transportin-1 (recombinant, GeneTex GTX103003); assay: EMSA; details: 20 ug protein; EMSA: LightShift Chemiluminescent RNA EMSA kit, room temperature 20-30 min, buffer not stated; pull-down with linearized circAnks1a: 50 mM Tris-HCl, 150 mM NaCl; commercial protein; label: 3' biotin
[3] = tested on: YBX1 (recombinant, Abcam ab187443); assay: competition with a labelled probe; details: unlabeled mutant fails to compete with labeled site-1, unlabeled wild type competes; EMSA: LightShift Chemiluminescent RNA EMSA kit, room temperature 20-30 min, buffer not stated; pull-down with linearized circAnks1a: 50 mM Tris-HCl, 150 mM NaCl; commercial protein; label: unlabeled competitor

Sequence | binding result [1] | binding result [2] | binding result [3]
CCUAGGGAACGCCCGCCACCUCCAGCAAAGCCGCCGCCUGAUGAAGAG [circAnks1a site-1 (YBX1 motif-1)] | binds | no binding | 
CCUAGGGAACGCCCGCCACCAGGUCGUUAGCCGCCGCCUGAUGAAGAG [circAnks1a site-1 mutant] |  |  | no binding
UGGCUGCAGGAAUCGACGUCAACAUCAAGGACAACCGUGGCCUGACU [circAnks1a site-2 (YBX1 motif-2)] | no binding |  | 
